Experimental data as given in patent publication US20220348970A1, “METHODS AND COMPOSITIONS FOR 3-HYDROXYPROPIONATE PRODUCTION” (The Regents of the University of California, priority 2017, published 2022).
At least one structure is not confirmed: it was looked up by name or label, or the drawing left a doubt.

Biological target: T1, pyruvate decarboxylase from Gluconacetobacter diazotrophicus (4COK), SEQ ID NO: 1 (Gluconacetobacter diazotrophicus, UniProt A9H275)
T1 construct: likely strain PAl 5 (ATCC 49037 / DSM 5601)
T1 sequence (A9H275 1-558): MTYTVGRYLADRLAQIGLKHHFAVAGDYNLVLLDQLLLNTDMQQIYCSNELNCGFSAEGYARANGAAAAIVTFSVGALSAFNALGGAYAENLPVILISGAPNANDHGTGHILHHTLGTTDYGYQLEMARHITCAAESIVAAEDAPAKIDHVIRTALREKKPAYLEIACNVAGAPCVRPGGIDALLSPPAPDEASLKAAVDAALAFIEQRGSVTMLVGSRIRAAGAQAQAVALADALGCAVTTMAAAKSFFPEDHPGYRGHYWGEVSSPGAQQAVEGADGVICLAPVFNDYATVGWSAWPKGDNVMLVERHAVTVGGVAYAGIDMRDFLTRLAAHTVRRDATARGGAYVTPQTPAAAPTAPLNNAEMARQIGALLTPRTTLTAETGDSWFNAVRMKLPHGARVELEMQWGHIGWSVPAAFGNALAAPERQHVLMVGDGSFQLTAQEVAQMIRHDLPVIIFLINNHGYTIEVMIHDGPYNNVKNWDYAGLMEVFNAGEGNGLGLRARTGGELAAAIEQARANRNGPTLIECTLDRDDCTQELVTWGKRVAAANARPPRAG
Assay: Steady-state kinetics of 4COK decarboxylase on pyruvate and oxaloacetate (ADH/NADPH coupled, 340 nm)
Format: biochemical
Conditions: pH 7.2, 21° C., 0.1 mM-5 mM substrate
Description: Overnight cultures of BLR cells suspended in a 2 mL volume were transformed with a pet29b+ plasmid (encoding polypeptides of interest with a C-terminal His-tag) and grown in Terrific Broth with 50 μg/ml kanamycin. Cultures were diluted 1:1.000 in 500 ml of Terrific Broth with 1 mM MgSO4, 1% glucose and 50 μg/ml antibiotic and then grown at 37° C. for 24 hours. Cultures were pelleted down at 4,700 RPM for 10 minutes and resuspended in auto-induction media (LB broth, 1 mM MgSO4, 0.1 mM TPP, 1×NPS and 1×5052) for induction at 18° C. for 20 hours. […] Protein concentrations were determined using a Synergy H1 spectrophotometer (Biotek) by measuring absorbance at 280 nm using calculated extinction coefficients.
All substrates were dissolved in MilliQ H2O and the pH was adjusted to 7.2 as necessary. Activity for oxaloacetate, pyruvate, and 2-ketoisovalerate was measured at a 1 mM substrate concentration. […] Absorbance readings were taken at one minute intervals at 340 nm at 21° C. for 60 minutes using the Synergy H1 spectrophotometer (Biotek). Kinetic parameters (ka and Ks1) were determined by fitting initial velocity versus substrate concentration data to the Michaelis-Menten equation. […]

Q: For CC(=O)C(=O)O [Pyruvate, pyruvate], which kcat/KM is on record?
A: Its kcat/KM is “approximately 5532.1 M^−1s^−1”.
